The text below walks through data of article PMC11932694.

Sequences of proteins named here, by UniProt entry; tags and fusion partners are left off.
UniProt Q14694: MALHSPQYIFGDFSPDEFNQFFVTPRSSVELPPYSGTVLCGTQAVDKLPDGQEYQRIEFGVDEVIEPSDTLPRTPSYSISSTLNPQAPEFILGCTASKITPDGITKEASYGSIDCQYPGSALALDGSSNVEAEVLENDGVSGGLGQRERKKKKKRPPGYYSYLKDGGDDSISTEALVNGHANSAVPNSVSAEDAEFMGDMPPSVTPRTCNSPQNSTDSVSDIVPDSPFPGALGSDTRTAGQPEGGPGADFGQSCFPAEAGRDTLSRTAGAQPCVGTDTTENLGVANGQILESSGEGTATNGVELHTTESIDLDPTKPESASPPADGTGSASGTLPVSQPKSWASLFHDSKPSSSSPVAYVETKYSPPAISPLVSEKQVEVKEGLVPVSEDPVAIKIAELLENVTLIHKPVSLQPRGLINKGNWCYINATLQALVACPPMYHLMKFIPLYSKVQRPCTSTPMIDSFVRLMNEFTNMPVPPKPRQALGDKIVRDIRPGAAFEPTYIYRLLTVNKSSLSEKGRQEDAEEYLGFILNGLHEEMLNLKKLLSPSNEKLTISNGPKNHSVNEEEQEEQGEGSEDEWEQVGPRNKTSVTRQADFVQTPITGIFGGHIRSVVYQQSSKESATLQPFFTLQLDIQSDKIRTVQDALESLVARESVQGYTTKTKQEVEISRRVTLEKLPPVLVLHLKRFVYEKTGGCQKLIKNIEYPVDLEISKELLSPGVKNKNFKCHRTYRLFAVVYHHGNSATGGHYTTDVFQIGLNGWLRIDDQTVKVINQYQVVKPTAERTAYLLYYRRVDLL
UniProt Q7Z434: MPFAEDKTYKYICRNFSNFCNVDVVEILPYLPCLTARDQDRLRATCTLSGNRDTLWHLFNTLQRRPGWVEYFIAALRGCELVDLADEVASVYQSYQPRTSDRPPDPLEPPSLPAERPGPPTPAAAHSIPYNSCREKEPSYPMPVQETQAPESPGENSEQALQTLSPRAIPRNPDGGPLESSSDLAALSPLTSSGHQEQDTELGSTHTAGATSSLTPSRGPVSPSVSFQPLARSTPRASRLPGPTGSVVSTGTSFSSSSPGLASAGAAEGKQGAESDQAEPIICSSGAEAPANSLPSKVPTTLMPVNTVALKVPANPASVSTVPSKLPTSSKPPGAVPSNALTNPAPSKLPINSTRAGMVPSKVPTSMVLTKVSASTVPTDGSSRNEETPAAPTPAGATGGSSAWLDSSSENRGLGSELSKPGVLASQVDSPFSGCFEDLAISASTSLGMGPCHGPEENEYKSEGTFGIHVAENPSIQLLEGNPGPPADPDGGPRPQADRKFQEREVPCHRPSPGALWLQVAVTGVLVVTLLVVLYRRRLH

No constants are given. Whether binding was seen depends on the method and setting. In cells and extracts the contact can be indirect. Some binding calls cover weakened binding; strength is not graded here. For some of these results: Tags and fused reporters may be left off the sequences shown.

Assay [1] deals with Flag-USP10 (UniProt Q14694). Kind of assay: co-IP; HEK293T cells transfected with RIG-I-Myc and EV or Flag-USP10; lysates immunoprecipitated with anti-Flag antibody, blots with anti-Flag and anti-Myc.
The target in assay [2] is Flag-USP10 (UniProt Q14694). Kind of assay: co-IP; HEK293T cells transfected with Flag-USP10 and RIG-I-Myc, with or without ORMDL3 co-transfection; lysates immunoprecipitated with anti-Flag antibody, blots with anti-Flag and anti-Myc.
Another assay concerns the target Flag-MAVS (UniProt Q7Z434). The assay is described as follows: co-IP; HEK293T cells co-transfected with a Flag-tagged protein and GFP-tagged ORMDL3 (whole or truncated); lysates immunoprecipitated with anti-Flag antibody and protein A/G beads, blots with anti-GFP and anti-Flag; in Figure 5B with or without poly(I:C) co-transfection.

B1: RIG-I-Myc (protein, UniProt O95786 1-925)
chain: MTTEQRRSLQAFQDYIRKTLDPTYILSYMAPWFREEEVQYIQAEKNNKGPMEAATLFLKFLLELQEEGWFRGFLDALDHAGYSGLYEAIESWDFKKIEKLEEYRLLLKRLQPEFKTRIIPTDIISDLSECLINQECEEILQICSTKGMMAGAEKLVECLLRSDKENWPKTLKLALEKERNKFSELWIVEKGIKDVETEDLEDKMETSDIQIFYQEDPECQNLSENSCPPSEVSDTNLYSPFKPRNYQLELALPAMKGKNTIICAPTGCGKTFVSLLICEHHLKKFPQGQKGKVVFFANQIPVYEQQKSVFSKYFERHGYRVTGISGATAENVPVEQIVENNDIIILTPQILVNNLKKGTIPSLSIFTLMIFDECHNTSKQHPYNMIMFNYLDQKLGGSSGPLPQVIGLTASVGVGDAKNTDEALDYICKLCASLDASVIATVKHNLEELEQVVYKPQKFFRKVESRISDKFKYIIAQLMRDTESLAKRICKDLENLSQIQNREFGTQKYEQWIVTVQKACMVFQMPDKDEESRICKALFLYTSHLRKYNDALIISEHARMKDALDYLKDFFSNVRAAGFDEIEQDLTQRFEEKLQELESVSRDPSNENPKLEDLCFILQEEYHLNPETITILFVKTRALVDALKNWIEGNPKLSFLKPGILTGRGKTNQNTGMTLPAQKCILDAFKASGDHNILIATSVADEGIDIAQCNLVILYEYVGNVIKMIQTRGRGRARGSKCFLLTSNAGVIEKEQINMYKEKMMNDSILRLQTWDEAVFREKILHIQTHEKFIRDSQEKPKPVPDKENKKLLCRKCKALACYTADVRVIEECHYTVLGDAFKECFVSRPHPKPKQFSSFEKRAKIFCARQNCSHDWGIHVKYKTFEIPVIKIESFVVEDIATGVQTLYSKWKDFHFEKIPFDPAEMSK
Take B1: the binding result in the assay with Flag-USP10 [1] and with Flag-USP10 [2] was “binds” each time.

B2: ORMDL3 (co-transfected in Figure 6A; tag not named) (protein, UniProt Q8N138 1-153)
chain: MNVGTAHSEVNPNTRVMNSRGIWLSYVLAIGLLHIVLLSIPFVSVPVVWTLTNLIHNMGMYIFLHTVKGTPFETPDQGKARLLTHWEQMDYGVQFTASRKFLTITPIVLYFLTSFYTKYDQIHFVLNTVSLMSVLIPKLPQLHGVRIFGINKY
On to B2, for which the binding entry with Flag-USP10 [2] is “binds”.

As to MNVGTAHSEVNPNTRVMNSRGIWLSYVLAIGLLHIVLLSIPF (domain or fragment, UniProt Q8N138 1-42) [ORMDL3 (1–42aa)], the binding result with Flag-MAVS is given as “binds”.

LTHWEQMDYGVQFTASRKFLTITPIVLYFLTSFYTK (domain or fragment, UniProt Q8N138 83-118) [ORMDL3 (83–118aa)]: the binding entry with Flag-MAVS was “binds”. On the same count and under the same terms, the entry for VSVPVVWTLTNLIHNMGMYIFLHTVKGTPFETPDQGKARL (domain or fragment, UniProt Q8N138 43-82) [ORMDL3 (43–82aa)] is “binds”; for YDQIHFVLNTVSLMSVLIPKLPQLHGVRIFGINKY (domain or fragment, UniProt Q8N138 119-153) [ORMDL3 (119–153aa)] it is “binds”.
